These are yes or no findings as the source states them, for the method shown. In cells and extracts the contact can be indirect. Some entries that bind do so weakly or less than the wild type.
Experiments:
[1] = biological target: CSN9 signalosome subunit 5 (CSN5) (human (endogenous in HCT116)) (UniProt Q92905); experiment: co-IP; HCT116 cells exogenously expressing HA-HIF1α and MIF-2xFLAG, treated with LPA or PBS; co-immunoprecipitation with endogenous CSN5
[2] = biological target: CSN9 signalosome subunit 5 (CSN5) (human (endogenous in HCT116)) (UniProt Q92905); experiment: co-IP; Lysates of HCT116 cells treated with LPA or PBS immunoprecipitated with anti-CSN5 antibody; blot with anti-HIF1α or anti-MIF

By UniProt entry, the sequences of proteins in these tests, tags left out.
UniProt Q92905: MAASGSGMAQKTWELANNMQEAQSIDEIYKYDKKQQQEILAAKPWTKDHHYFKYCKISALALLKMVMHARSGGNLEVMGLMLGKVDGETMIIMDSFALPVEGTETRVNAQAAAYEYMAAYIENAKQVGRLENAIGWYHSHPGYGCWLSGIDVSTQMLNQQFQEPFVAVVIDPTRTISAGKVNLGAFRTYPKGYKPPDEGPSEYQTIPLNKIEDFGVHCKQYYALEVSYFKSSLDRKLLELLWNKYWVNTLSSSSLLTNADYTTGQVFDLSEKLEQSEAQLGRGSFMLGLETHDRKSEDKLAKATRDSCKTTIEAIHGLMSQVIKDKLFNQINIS
UniProt Q16665: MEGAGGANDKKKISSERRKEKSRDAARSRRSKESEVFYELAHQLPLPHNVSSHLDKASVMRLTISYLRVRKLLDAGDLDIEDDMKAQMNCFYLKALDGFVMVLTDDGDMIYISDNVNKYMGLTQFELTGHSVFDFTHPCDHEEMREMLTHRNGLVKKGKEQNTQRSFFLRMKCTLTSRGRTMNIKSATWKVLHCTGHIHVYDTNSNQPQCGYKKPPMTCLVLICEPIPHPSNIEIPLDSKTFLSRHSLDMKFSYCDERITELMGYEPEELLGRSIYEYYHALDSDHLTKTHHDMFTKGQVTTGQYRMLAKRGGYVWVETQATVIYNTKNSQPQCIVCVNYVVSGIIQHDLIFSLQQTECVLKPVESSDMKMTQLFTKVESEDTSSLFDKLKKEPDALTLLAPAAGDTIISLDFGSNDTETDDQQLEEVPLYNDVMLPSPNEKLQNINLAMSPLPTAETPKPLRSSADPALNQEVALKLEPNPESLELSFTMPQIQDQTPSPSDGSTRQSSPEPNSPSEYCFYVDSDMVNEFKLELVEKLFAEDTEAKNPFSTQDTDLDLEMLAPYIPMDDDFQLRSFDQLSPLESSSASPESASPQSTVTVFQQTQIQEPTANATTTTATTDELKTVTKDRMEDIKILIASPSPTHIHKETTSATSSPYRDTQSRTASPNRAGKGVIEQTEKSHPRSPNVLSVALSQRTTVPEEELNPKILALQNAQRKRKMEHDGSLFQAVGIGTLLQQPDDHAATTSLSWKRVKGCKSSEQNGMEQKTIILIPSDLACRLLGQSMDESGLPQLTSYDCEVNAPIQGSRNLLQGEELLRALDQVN

| binding [1] | binding [2] | Substance |
| --- | --- | --- |
| binds | – | HA-HIF1α (from UniProt Q16665 1-826) |
| – | binds | hypoxia-inducible factor 1α (HIF1α) (from UniProt Q16665 1-826) |

Source: publication PMC4564097
